Measurements published in patent US20200010554A1 (TUSK THERAPEUTICS, published 2020).
Residue numbers refer to the chain shown, from its start. These are yes or no findings as the source states them, for the method shown. Some binding calls cover weakened binding; strength is not graded here. One block for each binder: values may come before it.

How the values were obtained:
[1] = biological target: T1, recombinant human CD25 his tagged (human, UniProt P01589 22-213, limits assumed); assay: BLI (Octet), sequential binding to immobilized rhCD25 his tagged, first antibody step [B]
T1 construct: also called rhCD25 his tagged; rhCD25; not shown: his tag
T1 sequence: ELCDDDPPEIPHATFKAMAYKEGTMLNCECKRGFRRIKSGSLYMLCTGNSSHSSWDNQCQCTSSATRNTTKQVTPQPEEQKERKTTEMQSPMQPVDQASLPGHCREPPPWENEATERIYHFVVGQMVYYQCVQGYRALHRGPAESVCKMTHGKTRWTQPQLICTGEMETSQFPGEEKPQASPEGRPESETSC

[2] = biological target: human CD25 expressed on cells (Karpas 299, SU-DHL-1, SR-786, in vitro differentiated Treg cells, PBMC) (human) (UniProt P01589); assay: flow cytometry on Karpas 299 cells, MFI AF647
[3] = biological target: human CD25 expressed on cells (Karpas 299, SU-DHL-1, SR-786, in vitro differentiated Treg cells, PBMC) (human) (UniProt P01589); assay: flow cytometry titration on Karpas 299 cells (FIG. 21)
[4] = biological target: human CD25 (soluble antigen of the Octet Red384 sandwich assays, 100 nM) (human) (UniProt P01589); assay: BLI, Octet Red384 sandwich assay: MA251 on AHQ sensor, 100 nM human CD25, then 100 nM human IL-2
[5] = biological target: human CD25 (soluble antigen of the Octet Red384 sandwich assays, 100 nM) (human) (UniProt P01589); assay: BLI Octet Red384 sandwich assay, MA251 on AHQ sensor, 100 nM human CD25, then 100 nM human IL-2 (FIG. 23)
[6] = biological target: T1, recombinant human CD25 his tagged; assay: BLI, Octet Red96 sequential binding: rhCD25 his tagged on Ni-NTA sensor, first antibody 66.6 nM, then second antibody 66.6 nM
[7] = biological target: T1, recombinant human CD25 his tagged; assay: BLI, Octet Red96 sequential binding: rhCD25 his tagged on Ni-NTA sensor, first antibody 66.6 nM, then second antibody 66.6 nM [D00027 FIGURE 24 cont. Q]
[8] = biological target: human CD25 expressed on cells (Karpas 299, SU-DHL-1, SR-786, in vitro differentiated Treg cells, PBMC) (human) (UniProt P01589); assay: flow cytometry titration on Karpas 299 cells, AF647 secondary antibody
[9] = biological target: T1, recombinant human CD25 his tagged; assay: BLI (Octet), sequential binding to immobilized rhCD25 his tagged, first antibody step

B2: Antibody 7 (antibody, V domains shown)
VH: EVQLLESGGGLVQPGGSLRLSCAASGFTFSSYGMSWVRQAPGKGLELVSTINGYGDTTYYPDSVKGRFTISRDNSKNTLYLQMNSLRAEDTAVYYCARDRDYGNSYYYALDYWGQGTLVTVSS
VL: QIVLTQSPGTLSLSPGERATLSCRASSSVSFMHWLQQKPGQSPRPLIYATSNLASGIPDRFSGSGSGTDYTLTISRLEPEDFAVYYCQQWSSNPPAFGQGTKLEIK
notes: compared with a human IgG1 isotype control
binding [1]: binds

B3: MA251, mouse anti-human CD25 antibody (antibody, V domains shown)
VH: QVQLKESGPGLVAPSQSLSITCTVSGFSLTSYGIQWVRQPPGKGLEWLGVIWAGGSTNYNSALMSRLSISKDNSKSQVFLKMNSLQTDDTAMYYCARAYGYDGSWLAYWGQGTLVTVSS
VL: QIVLSQSPAILSASPGEKVTMTCRASSSVSYMHWYQQKPGSSPKPWIFATSNLASGVPARFSGSGSGTSYSLTINRVEAEDADTYYCQQWSSNPPTFGGGTKLEIK
notes: Mouse isotype (compared with a mouse IgG1 isotype control)
binding [2]: binds | binding [3]: binds | binding [4]: binds | binding [5]: binds | binding [6]: binds

B4: 7G7B6, mouse IgG2a anti-human CD25 antibody (antibody, V domains shown)
VH: EVQLVESGGDLVQPRGSLKLSCAASGFTFSSYGMSWVRQTPDKRLELVATINGYGDTTYYPDSVKGRFTISRDNAKNTLYLQMSSLKSEDTAMYFCARDRDYGNSYYYALDYWGQGTSVTVSS
VL: B3 VL with K18R, Y31F, Y35L, F48Y, P58S, N75T, D83A, T96A
notes: also called 7G76B; mouse anti-human CD25 clone 7G7B6
binding [7]: binds

Continued, values first:

binding [1]: binds
B1: Antibody 19 (antibody, V domains shown)
VH: QVQLVESGGGVVQPGGSLRLSCAVSGFSLTSYGIQWVRQAPGKGLEWVSVIWAGGSTNYNSALMSRFTISKDNSKSTLYLQMNSLRAEDTAVYYCARAYGYDGSWLAYWGQGTLVTVSS
VL: B2 VL with G9A, F31Y, L35Y, S42A, Y48F, D59A, R76S, A96T, Q99G
notes: also called Ab19; Antibodyl9

binding [8]: binds | binding [9]: binds
B5: Antibody 5 (antibody, V domains shown)
VH: EVQLVESGGGLIQPGGSLRLSCAASGFTLDSYGVSWVRQAPGKGLEWVGVTSSGGSAYYADSVKGRFTISRDNSKNTLYLQMNSLRAEDTAVYYCARDRYVYTGGYLYHYGMDLWGQGTLVTVSS
VL: DIQMTQSPSSLSASVGDRVTITCRASQSISDYLAWYQQKPGKVPKLLIYAASTLPFGVPSRFSGSGSGTDFTLTISSLQPEDVATYYCQGTYDSSDWYWAFGGGTKVEI
notes: as for B2
